This note sets out measurements from publication PMC4385868.

Sequences of proteins named here, by UniProt entry; tags and fusion partners are left off.
UniProt P35222: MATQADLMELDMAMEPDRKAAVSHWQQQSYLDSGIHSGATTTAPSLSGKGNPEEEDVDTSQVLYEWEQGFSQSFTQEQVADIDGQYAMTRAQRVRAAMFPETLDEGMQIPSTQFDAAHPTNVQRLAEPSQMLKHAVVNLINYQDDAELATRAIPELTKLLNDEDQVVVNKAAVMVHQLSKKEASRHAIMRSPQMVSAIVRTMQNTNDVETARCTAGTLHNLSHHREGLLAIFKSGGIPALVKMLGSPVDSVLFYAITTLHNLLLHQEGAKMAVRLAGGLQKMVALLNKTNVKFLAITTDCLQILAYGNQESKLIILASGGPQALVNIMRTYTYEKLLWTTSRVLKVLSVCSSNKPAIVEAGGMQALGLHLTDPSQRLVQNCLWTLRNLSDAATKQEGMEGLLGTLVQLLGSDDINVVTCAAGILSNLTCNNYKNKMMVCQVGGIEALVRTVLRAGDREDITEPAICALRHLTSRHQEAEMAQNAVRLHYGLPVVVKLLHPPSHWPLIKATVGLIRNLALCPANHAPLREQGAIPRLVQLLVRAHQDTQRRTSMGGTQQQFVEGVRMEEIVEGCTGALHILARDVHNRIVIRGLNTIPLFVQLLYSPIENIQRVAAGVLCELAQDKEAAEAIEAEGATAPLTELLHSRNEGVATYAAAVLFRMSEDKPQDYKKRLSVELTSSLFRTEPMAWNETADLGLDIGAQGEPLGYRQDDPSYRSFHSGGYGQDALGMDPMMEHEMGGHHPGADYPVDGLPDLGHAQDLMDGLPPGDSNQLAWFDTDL
UniProt Q02248: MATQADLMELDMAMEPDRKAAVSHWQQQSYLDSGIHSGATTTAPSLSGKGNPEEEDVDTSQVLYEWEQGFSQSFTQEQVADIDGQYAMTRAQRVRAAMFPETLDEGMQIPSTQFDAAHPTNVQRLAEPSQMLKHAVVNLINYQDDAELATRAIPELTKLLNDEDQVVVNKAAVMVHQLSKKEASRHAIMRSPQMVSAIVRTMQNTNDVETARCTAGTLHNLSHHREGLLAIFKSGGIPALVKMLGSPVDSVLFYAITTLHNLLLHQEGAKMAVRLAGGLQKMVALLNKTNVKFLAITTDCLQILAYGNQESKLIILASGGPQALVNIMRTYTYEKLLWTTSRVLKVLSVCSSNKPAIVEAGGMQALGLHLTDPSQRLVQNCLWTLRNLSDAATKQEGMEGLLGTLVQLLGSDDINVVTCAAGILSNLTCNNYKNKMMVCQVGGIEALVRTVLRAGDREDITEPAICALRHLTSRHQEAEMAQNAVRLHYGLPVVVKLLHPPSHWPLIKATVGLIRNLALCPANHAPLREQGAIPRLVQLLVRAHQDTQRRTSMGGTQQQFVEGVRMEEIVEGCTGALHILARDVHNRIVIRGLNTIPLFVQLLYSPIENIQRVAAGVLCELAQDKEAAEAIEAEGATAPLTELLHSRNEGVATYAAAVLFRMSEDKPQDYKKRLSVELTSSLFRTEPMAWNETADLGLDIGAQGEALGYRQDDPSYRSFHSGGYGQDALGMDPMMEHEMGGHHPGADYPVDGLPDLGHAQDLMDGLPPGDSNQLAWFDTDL

Assay [1] has as its target T1, endogenous Vav1 (human (endogenous in H358 and H441)) (UniProt P15498).
T1 sequence: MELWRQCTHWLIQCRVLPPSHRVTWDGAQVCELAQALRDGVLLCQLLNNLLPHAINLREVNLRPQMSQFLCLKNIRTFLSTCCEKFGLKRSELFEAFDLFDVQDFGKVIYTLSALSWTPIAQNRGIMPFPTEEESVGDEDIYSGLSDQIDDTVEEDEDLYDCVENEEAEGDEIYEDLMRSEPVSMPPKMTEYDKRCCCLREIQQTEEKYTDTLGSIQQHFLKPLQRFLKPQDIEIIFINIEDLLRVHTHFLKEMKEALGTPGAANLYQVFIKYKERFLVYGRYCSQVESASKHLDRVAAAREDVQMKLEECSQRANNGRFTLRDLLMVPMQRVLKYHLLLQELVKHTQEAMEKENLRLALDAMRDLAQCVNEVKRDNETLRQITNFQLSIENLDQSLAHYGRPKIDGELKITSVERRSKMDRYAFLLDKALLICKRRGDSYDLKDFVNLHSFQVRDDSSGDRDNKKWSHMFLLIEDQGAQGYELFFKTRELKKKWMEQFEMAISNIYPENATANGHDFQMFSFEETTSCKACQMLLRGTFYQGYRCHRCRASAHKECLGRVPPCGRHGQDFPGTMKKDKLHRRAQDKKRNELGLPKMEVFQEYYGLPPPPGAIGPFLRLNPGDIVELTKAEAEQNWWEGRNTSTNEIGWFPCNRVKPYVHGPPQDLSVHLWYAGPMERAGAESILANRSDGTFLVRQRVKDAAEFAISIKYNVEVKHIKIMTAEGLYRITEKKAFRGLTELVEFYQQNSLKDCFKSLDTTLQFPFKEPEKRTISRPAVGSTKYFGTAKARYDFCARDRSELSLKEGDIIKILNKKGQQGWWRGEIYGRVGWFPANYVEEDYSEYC
The experiment in a line: co-IP; total cell extracts of H358 and H441 cells precipitated with anti-Vav1 Ab or control IgG (1% NP-40 lysis buffer); partners detected by sequential immunoblotting. Background: In western blotting, separated proteins are transferred to a membrane and probed.

Assay [2] has as its target T2, GST-SH2 (human) (UniProt P15498).
T2 sequence: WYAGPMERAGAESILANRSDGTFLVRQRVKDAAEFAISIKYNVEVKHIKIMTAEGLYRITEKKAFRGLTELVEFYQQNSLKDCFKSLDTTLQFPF
The experiment in a line: pull-down; GST fusion proteins bound to glutathione-Sepharose 4B beads incubated 2 hours with NIH3T3 cell extracts; β-catenin detected by immunoblotting; only the target purified.

These are yes or no findings as the source states them, for the method shown. In cells and extracts the contact can be indirect. Some results given as binding are weak or reduced against the parent protein; the word gives no strength. For some assays here: Tags and fused reporters may be left off the sequences shown.

β-catenin (from UniProt P35222 1-781): in assay [1], the binding entry is “binds”.
As to β-catenin (from UniProt Q02248 1-781), the binding entry in assay [2] was “binds”.
